Columns and labels:
[1] = tested on: NPF-209 normal prostate fibroblast; assay: Rh-123 retention by flow cytometry, NPF-209; assay type: cell-based, human
LNCaP = assay: Rh-123 retention by flow cytometry, LNCaP; assay type: cell-based, human

Q: How did the “Rh-123 taken up that was lost” value ([1]; NPF cells, within 24 hours following removal of the drug) turn out when `COC(=O)c1ccccc1-c1c2ccc(=N)cc-2oc2cc(N)ccc12.Cl` [Rh-123, methyl o-(6-amino-3-imino-3H-xanthen-9-yl) benzoate monohydrochloride] was run?
A: over 90%

Q: What about the “% Retention of Rh-123” value ([1]; NPF-209, 24 hours in dye-free medium after 1 hour labeling with 10 μg/ml) of the same compound?
A: 9%

Q: What about the “% Retention of Rh-123” value (LNCaP; LNCaP Population 1, 24 hours in dye-free medium after 1 hour labeling with 10 μg/ml) of the same compound?
A: 24%

Q: What about the “% Retention of Rh-123” value (LNCaP; LNCaP Population 2, 24 hours in dye-free medium after 1 hour labeling with 10 μg/ml) of the same compound?
A: 64%

From patent US7008961B1, “Composition and method for treating carcinoma” (priority 1995, dated 2006)
